No constants are given. Whether binding was seen depends on the method and setting.
T1: recombinant Bet v 1a (birch), P15494
T1 chain: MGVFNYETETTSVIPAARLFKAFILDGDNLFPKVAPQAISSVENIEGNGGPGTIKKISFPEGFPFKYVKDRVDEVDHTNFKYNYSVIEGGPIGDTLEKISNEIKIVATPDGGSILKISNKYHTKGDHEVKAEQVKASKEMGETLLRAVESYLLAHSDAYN


Columns and labels:
[1] = molecular target: T1, recombinant Bet v 1a (birch), P15494; assay: 15N NMR spin relaxation; 15N spin relaxation rates of rBet v 1a in NMR; data in S1 File; both purified; conditions: remark: other sources report otherwise
[2] = molecular target: T1, recombinant Bet v 1a (birch), P15494; assay: dynamic light scattering; 10 μM protein in 10 mM KPi, pH 7.4, 25°C; hydrodynamic radius (RH) from the diffusion coefficient; both purified; conditions: remark: other sources report otherwise
[3] = molecular target: recombinant Bet v 1a S112P/R145P (birch) (UniProt P15494); assay: as above

Binder	binding [1]	binding [2]	binding [3]
recombinant Bet v 1a, P15494 1-160 (protein) MGVFNYETETTSVIPAARLFKAFILDGDNLFPKVAPQAISSVENIEGNGGPGTIKKISFPEGFPFKYVKDRVDEVDHTNFKYNYSVIEGGPIGDTLEKISNEIKIVATPDGGSILKISNKYHTKGDHEVKAEQVKASKEMGETLLRAVESYLLAHSDAYN	no binding	no binding (tested: 10 μM)	
recombinant Bet v 1a S112P/R145P (protein, UniProt P15494 1-160) MGVFNYETETTSVIPAARLFKAFILDGDNLFPKVAPQAISSVENIEGNGGPGTIKKISFPEGFPFKYVKDRVDEVDHTNFKYNYSVIEGGPIGDTLEKISNEIKIVATPDGGPILKISNKYHTKGDHEVKAEQVKASKEMGETLLPAVESYLLAHSDAYN			no binding (tested: 10 μM)

Source: article PMC4506129
